Measurements reported in paper PMC9681205.
No constants are given. Whether binding was seen depends on the method and setting. In cells and extracts the contact can be indirect. Some results given as binding are weak or reduced against the parent protein; the word gives no strength.

The chains behind the UniProt entries cited, without tags or fusion partners. Where a name states a change or a piece, a line headed by the entry shows the natural chain unless it says otherwise. Residues count along the entry.
UniProt P49951, residues 1-363: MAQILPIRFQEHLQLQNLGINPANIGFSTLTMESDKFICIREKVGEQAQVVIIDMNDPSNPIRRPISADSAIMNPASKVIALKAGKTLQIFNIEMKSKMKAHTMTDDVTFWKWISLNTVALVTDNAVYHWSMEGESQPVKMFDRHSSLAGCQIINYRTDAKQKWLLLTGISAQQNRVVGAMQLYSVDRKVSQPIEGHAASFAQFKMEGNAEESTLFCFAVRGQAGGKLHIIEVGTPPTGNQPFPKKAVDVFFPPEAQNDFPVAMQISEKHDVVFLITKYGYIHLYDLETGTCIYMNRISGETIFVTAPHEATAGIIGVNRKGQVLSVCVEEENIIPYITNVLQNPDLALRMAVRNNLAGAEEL
UniProt P63010, residues 701-937: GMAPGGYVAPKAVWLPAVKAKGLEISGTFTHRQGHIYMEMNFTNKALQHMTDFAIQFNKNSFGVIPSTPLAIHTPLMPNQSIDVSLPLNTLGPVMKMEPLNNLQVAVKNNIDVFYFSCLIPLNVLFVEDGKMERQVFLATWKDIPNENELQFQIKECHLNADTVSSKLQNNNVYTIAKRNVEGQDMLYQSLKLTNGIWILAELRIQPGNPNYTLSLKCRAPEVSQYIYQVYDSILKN
UniProt P29067: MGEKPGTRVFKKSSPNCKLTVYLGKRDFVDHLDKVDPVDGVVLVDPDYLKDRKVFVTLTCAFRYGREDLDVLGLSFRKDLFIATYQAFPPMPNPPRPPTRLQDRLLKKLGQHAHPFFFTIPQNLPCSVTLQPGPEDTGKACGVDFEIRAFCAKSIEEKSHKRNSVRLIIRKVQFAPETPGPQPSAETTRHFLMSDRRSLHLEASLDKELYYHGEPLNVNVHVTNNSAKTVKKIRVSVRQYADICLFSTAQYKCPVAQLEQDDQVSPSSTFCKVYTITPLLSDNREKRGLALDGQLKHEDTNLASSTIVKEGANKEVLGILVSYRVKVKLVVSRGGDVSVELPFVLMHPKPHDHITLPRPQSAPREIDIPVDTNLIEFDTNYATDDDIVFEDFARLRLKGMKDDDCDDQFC

Columns and labels:
[1] = target: GST-tagged clathrin terminal domain (1–363) (UniProt P49951); test: pull-down; purified GST-tagged protein (1 mg) prebound to glutathione agarose; clarified lysate of βarr1/2 DKO cells (20 mM HEPES pH 7.4, 150 mM NaCl, 2 mM DTT, 5 mM EDTA, 1% NP-40); all samples with 10 μM V2Rpp; 3 hr at 4°C; eluted with 10 mM glutathione; anti-GFP western blot; only the target purified
[2] = target: GST-tagged β-appendage of AP2 (701–937) (UniProt P63010); test: as above

Row | binding [1] | binding [2] | Substance
1 | binds | binds | β-arrestin-2-EGFP (from UniProt P29067 1-410)
2 | no binding | no binding | β-arrestin-2-ΔCT-EGFP (from UniProt P29067 1-372) (domain or fragment)
